Test results from PubChem BioAssay AID206 (DTP/NCI, 2004).
Results filed as inconclusive are left out.

Tested on: nude mice, HT29 intrarenal xenograft, tumor weight T/C
Assay: NCI In Vivo Anticancer Drug Screen. Data for tumor model HT29;CX-1 Human Adenocarcinoma (MER+) (intrarenal inoculation) in NU/NU Swiss (nude) mice
Settings: endpoint: mean tumor weight change, schedule: Q01DX010 (sc), vehicle: Klucel (hydroxypropylcellulose) (HPC), higher = larger tumour
Experimental: The antitumor activity of compounds was measured in mice bearing transplantable tumors. Survival or tumor size were measured and the results are expressed as the measurement made in the treated group (T) divided by the measurement made in the vehicle treated control group (C). The tumor model used in this assay is HT29;CX-1 Human Adenocarcinoma (MER+) (intrarenal inoculation) in NU/NU Swiss (nude) mice

In the case of `COc1cc2c(c(OC)c1OC)-c1ccc(OC)c(=O)cc1[C@@H](N)CC2`, the T/C (dose: 0.31 mg/kg/injection) is reported as 91 % of control, the T/C (dose: 0.63 mg/kg/injection) is reported as 96 % of control and the T/C (dose: 1.25 mg/kg/injection) is reported as 94 % of control. For the same compound, the T/C (dose: 2.5 mg/kg/injection) was 50 % of control.
